Test results reported in PubChem BioAssay AID540275 (National Center for Advancing Translational Sciences (NCATS), 2011).
The campaign covered roughly 320,000 compounds. About 620 (0.19%) were called active. The shares of active, inactive and inconclusive entries below differ from those in the screen. Rule as the data show it: active = activation above about 80%; inconclusive = between about 30% and that limit; inactive = weaker than that.

Sequences of proteins named here, by UniProt entry; tags and fusion partners are left off.
UniProt Q8NER1, whole entry, looked up: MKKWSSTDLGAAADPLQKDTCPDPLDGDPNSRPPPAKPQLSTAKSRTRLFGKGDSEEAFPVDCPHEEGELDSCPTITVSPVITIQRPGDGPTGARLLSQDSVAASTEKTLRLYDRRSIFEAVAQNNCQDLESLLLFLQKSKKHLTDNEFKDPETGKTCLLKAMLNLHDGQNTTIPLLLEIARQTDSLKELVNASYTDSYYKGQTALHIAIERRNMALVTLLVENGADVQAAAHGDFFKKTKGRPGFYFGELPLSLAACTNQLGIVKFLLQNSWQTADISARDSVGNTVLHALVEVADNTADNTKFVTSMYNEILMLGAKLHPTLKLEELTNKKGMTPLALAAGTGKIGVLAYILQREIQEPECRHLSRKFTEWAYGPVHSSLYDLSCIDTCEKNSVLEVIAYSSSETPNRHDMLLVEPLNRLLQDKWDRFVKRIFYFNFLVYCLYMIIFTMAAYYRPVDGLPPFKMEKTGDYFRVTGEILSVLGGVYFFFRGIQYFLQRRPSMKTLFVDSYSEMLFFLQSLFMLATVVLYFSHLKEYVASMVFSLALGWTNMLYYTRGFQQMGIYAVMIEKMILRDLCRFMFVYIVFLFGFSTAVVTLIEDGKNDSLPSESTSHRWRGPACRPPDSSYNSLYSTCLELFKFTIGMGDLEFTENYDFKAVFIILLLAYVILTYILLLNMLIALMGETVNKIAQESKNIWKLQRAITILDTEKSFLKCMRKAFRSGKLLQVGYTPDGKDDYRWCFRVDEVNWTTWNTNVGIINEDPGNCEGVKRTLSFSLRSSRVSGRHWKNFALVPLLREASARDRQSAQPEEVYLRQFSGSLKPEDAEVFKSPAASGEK

target: Transient receptor potential cation channel subfamily V member 1 (Homo sapiens) (UniProt Q8NER1); test: HTS Assay for Compounds that Act as Agonists of the Vanilloid Receptor 1; conditions: TRPV1-expressing cells, Fluo-8 calcium influx, agonist mode; at 8.33 µM, active compounds read high; also: 0% is about no effect
Summary of the method: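 Fluo-8 calcium influx in TRPV1-expressing cells, kinetic read (ex 480/em 520 nm). Compound added and read 3 min for agonist activity, followed by capsaicin at EC20 final and 2 min further read for enhancement.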

For `Cc1ccc(S(=O)(=O)N(C)CC(=O)Nc2ccc(C)cn2)cc1`, which activation is on record?
Its activation is inconclusive: 33.6%.

With `O=C(NC1CCCCCCC1)c1ccc(F)c(S(=O)(=O)N2CCOCC2)c1` as the compound, how does the activation read?
The activation was inconclusive: 36.4%.

With `CC(NC(=O)c1ccco1)C(=O)O` (stereo unspecified) as the compound, how does the activation read?
The activation was inactive: -5.82%.

Which activation does the source give for `COc1ccc(CNC(=O)COC(=O)CCOc2ccc(C)cc2)cc1OC` here?
The activation was inconclusive: 73.6%.

Which activation does the source give for `O=C(Nc1nnc(-c2ccc(Cl)cc2)o1)c1ccc(N2C(=O)CCC2=O)cc1` here?
Its activation is inactive: -3.2%.

How did the activation turn out when `COc1ccc(NC(=O)C2CCN(c3cnccn3)CC2)cc1Cl` was run?
The activation was inactive: 27.8%.

With `COc1ccc(NC(=O)c2cccc(S(=O)(=O)N3CCN(C)CC3)c2)c(OC)c1` as the compound, how does the activation read?
Its activation is inactive: 1.77%.

Which activation does the source give for `C[C@H]1[C@H]2c3nc4ccccc4n3C[C@H]1ON2C1CCCCC1` here?
Its activation is inconclusive: 54.3%.

Which activation does the source give for `CC(=O)c1cccc(NC(=S)NC2CCCCCCC2)c1` here?
The activation was inconclusive: 67%.

`O=C(C1CCC(CNS(=O)(=O)c2cccc3nsnc23)CC1)N1CC=C(c2ccccc2)CC1` (stereo unspecified) was tested. Which activation did it give?
The activation was inactive: -4.59%.

How did the activation turn out when `CCCCNC(=O)c1c[nH]c2ccc(S(=O)(=O)N3CCOCC3)cc2c1=O` was run?
The activation was inconclusive: 62%.

How did the activation turn out when `O=C(Nc1cccc(C(F)(F)F)c1)C12CC3CC(CC(C3)C1)C2` was run?
The activation was inconclusive: 55.6%.

`CC1CC(C)CN(C(=O)c2cc3c(s2)CCC3)C1` (stereo unspecified) was tested. Which activation did it give?
The activation was inconclusive: 45.4%.

For `O=C(Nc1ccc2ccccc2c1)c1ccc(Br)o1`, which activation is on record?
The activation was inconclusive: 71.8%.

With `Fc1ccccc1NC(=S)NCCc1ccccc1` as the compound, how does the activation read?
The activation was inconclusive: 33.6%.

How did the activation turn out when `O=C(NCCc1ccccc1)c1ccc(Cl)c(S(=O)(=O)N2CCCC2)c1` was run?
Its activation is inconclusive: 30.2%.

How did the activation turn out when `CCOc1ccccc1C(=O)N1c2ccccc2Sc2ccccc21` was run?
The activation was inconclusive: 31.7%.

With `COc1ccc(O)c(C(=O)c2cnn(C(=O)c3cccc(S(=O)(=O)N4CCOCC4)c3)c2)c1` as the compound, how does the activation read?
Its activation is inactive: 4.23%.

How did the activation turn out when `CC(Oc1ccc(C(=O)c2ccccc2)cc1)C(=O)Nc1ccc(S(N)(=O)=O)cc1` (stereo unspecified) was run?
Its activation is inconclusive: 44.1%.

For `COc1ccc(C(=O)Nc2ccccc2N2CCN(C(=O)c3ccccc3)CC2)cc1Br`, which activation is on record?
Its activation is inconclusive: 43.1%.

`COC(=O)C1(CC2CC(c3ccncc3)=NO2)CCN(C(=O)OC(C)(C)C)CC1` (stereo unspecified) was tested. Which activation did it give?
The activation was inconclusive: 35.2%.

Which activation does the source give for `O=C(c1ccccc1)N1N=C(C(F)(F)F)CC1(O)c1ccccc1` (stereo unspecified) here?
Its activation is inactive: 22%.

`CCCc1cc(C(=O)NC2CCCN(Cc3ccccc3F)C2)no1` (stereo unspecified) was tested. Which activation did it give?
Its activation is inconclusive: 42.7%.

With `O=C(NCc1ccc(F)cc1)c1ccc(N2CCOCC2)c([N+](=O)[O-])c1` as the compound, how does the activation read?
Its activation is inconclusive: 34%.

How did the activation turn out when `O=C(Nc1ccc2c(c1)OCO2)C1CC(=O)N(c2ccc(F)cc2)C1` (stereo unspecified) was run?
The activation was inconclusive: 43.1%.

`CN(Cc1ccc(OC(F)F)cc1)C(=O)c1ccc(S(=O)(=O)N(C)c2ccccc2)cc1` was tested. Which activation did it give?
The activation was inactive: 21.8%.

`CCCOc1ccc(-c2c(C(=O)N/N=C/c3cccs3)nnn2-c2nonc2N)cc1` was tested. Which activation did it give?
Its activation is inconclusive: 52.8%.

Which activation does the source give for `Cc1ccc(C)c(NC(=S)NCc2cccs2)c1` here?
The activation was inconclusive: 30.4%.

`CCCCCCc1cc2cc(S(=O)(=O)c3ccc(C)cc3)c(=O)oc2cc1O` was tested. Which activation did it give?
The activation was inconclusive: 34.3%.

With `O=C(CSc1nc2ccccc2c(=O)n1CC1CCCO1)Nc1ccc(F)cc1` (stereo unspecified) as the compound, how does the activation read?
The activation was inconclusive: 39.9%.

With `O=C(COc1ccc(Br)cc1)Nc1ccc(Cc2ccncc2)cc1` as the compound, how does the activation read?
The activation was inconclusive: 36.1%.

With `CCOC(=O)N1CCN(C(=S)Nc2cc(S(=O)(=O)N3CCOCC3)ccc2Cl)CC1` as the compound, how does the activation read?
The activation was inactive: 1.8%.

With `CCN(CC)S(=O)(=O)c1cc(NC(=O)CNc2c(C)n(C)n(-c3ccccc3)c2=O)ccc1C` as the compound, how does the activation read?
The activation was inactive: -0.928%.

Which activation does the source give for `CCOC(=O)c1c(NC(=O)CSc2nnc(CNc3ccc(OC)cc3)n2C)sc(C)c1C` here?
The activation was inactive: -0.032%.

With `CCCCn1c(-c2ccccc2)cnc1SCC(=O)NCCc1ccc(OC)c(OC)c1` as the compound, how does the activation read?
Its activation is inconclusive: 58.3%.

How did the activation turn out when `COc1ccc(NC(=O)CCSc2ccc(F)cc2)cc1` was run?
Its activation is inconclusive: 46.6%.

How did the activation turn out when `CC(C)c1ccccc1NC(=S)NC(C)c1ccccc1` (stereo unspecified) was run?
The activation was inconclusive: 49.3%.

`CC(NC(=O)CN(C)S(=O)(=O)c1ccc(F)cc1)C1CC2CCC1C2` (stereo unspecified) was tested. Which activation did it give?
Its activation is inconclusive: 41.9%.

`O=C(O)c1cc(/C=C/C(=O)c2cc(F)ccc2O)c2c(c1)COCO2` was tested. Which activation did it give?
The activation was inactive: 0.338%.

For `CCC[C@H]1CCCC/C=C\CCCC(=O)OCCN1C(=O)OC(C)(C)C`, which activation is on record?
Its activation is inconclusive: 40.4%.

With `CCOc1ccc(NC(=O)CCNS(=O)(=O)c2ccc3c(c2)CCC(=O)N3)cc1` as the compound, how does the activation read?
The activation was inactive: -0.766%.

Which activation does the source give for `Fc1ccc(-[n+]2nc(Nc3ccccc3)sc2-c2c3ccccc3cc3ccccc23)cc1` here?
The activation was inactive: -5.22%.

`O=C(NCCc1ccc2c(c1)OCCO2)c1cccc(S(=O)(=O)N2CCCC2)c1` was tested. Which activation did it give?
The activation was inconclusive: 56.4%.

With `Cc1c(C)c2c(OCC(=O)NCc3ccncc3)cc3c(c2oc1=O)CCC(C)(C)O3` as the compound, how does the activation read?
The activation was active: 80.4%.

For `c1ccc(C2c3c(ccc4ccccc34)Oc3ncn4nc(-c5ccco5)nc4c32)cc1` (stereo unspecified), which activation is on record?
Its activation is inconclusive: 61.3%.

With `Cc1nnc(N2CCOCC2)c2nn(-c3cccc(Cl)c3)c(C)c12` as the compound, how does the activation read?
The activation was inconclusive: 73.2%.

`O=C(COc1ccccc1[N+](=O)[O-])NCCC1=CCCCC1` was tested. Which activation did it give?
The activation was inconclusive: 37.1%.

For `O=C(N/N=C/c1cccnc1)c1cc2c(ccc3ccccc32)o1`, which activation is on record?
The activation was inconclusive: 50.4%.

With `CC1CCN(C(=O)C2CCN(S(=O)(=O)c3cc(Cl)ccc3Cl)CC2)CC1` as the compound, how does the activation read?
Its activation is inconclusive: 76.4%.

For `O=C(c1cccnc1)N1N=C(c2cccs2)CC1c1ccc(F)cc1` (stereo unspecified), which activation is on record?
The activation was inactive: 2.43%.

Which activation does the source give for `COc1ccc(NC(=S)Nc2cccc(Cl)c2Cl)cc1OC` here?
Its activation is inactive: 0.901%.

For `Cc1ccc(N(CC(O)CN2CCCCC2)S(=O)(=O)c2ccccc2)cc1` (stereo unspecified), which activation is on record?
Its activation is inactive: -2.39%.

`C#CC[N+](C)(C)CCCCCCCC` was tested. Which activation did it give?
The activation was inactive: -0.913%.

`CC[C@@H](CCC=C(C)C)C(=O)N(Cc1ccccc1)c1ccccc1` was tested. Which activation did it give?
The activation was inconclusive: 43.6%.

How did the activation turn out when `NCC(c1ccc(Cl)cc1Cl)c1c[nH]c2ccccc12` (stereo unspecified) was run?
Its activation is inactive: 6.89%.

How did the activation turn out when `CCC(Oc1ccc(Br)cc1Cl)C(=O)Nc1nnc(C2CC2)s1` (stereo unspecified) was run?
The activation was inactive: 2.98%.
